At least one structure is not confirmed: it was looked up by name or label, or the drawing left a doubt. Peptide text beside a SMILES is read from it.
Tested on: Neonatal foreskin primary human epidermal melanocytes
Experiment: Melanin content assay (OD405 nm of cell lysate)
Type: cell-based
Settings: for Increase in melanin content of melanocytes (in words): data of Table 2
Procedure: All test compounds were purchased from SIGMA-ALDRICH as stocks of 10 mM in 100% DMSO. They were tested at various concentrations in cell culture (see below). Forskolin (SIGMA Cat. #F6886) and IBMX (SIGMA Cat. #I5879) were used as reference comparators, as they have been reported to increase melanin content. Neonatal foreskin primary human epidermal melanocytes were procured from Cascade Biologicals (labelled passage P0). Melanocytes were maintained in Medium 254CF (Cascade Cat. #M-254CF-500) supplemented with human melanocyte growth supplement (Cascade; Cat. #S-002-5), hereafter referred to as MGM. Cells were maintained at 37° C. in a humidified incubator with 5% CO2 atmosphere.
50,000 cells were seeded in 24 well plate in MGM; after 24 hours, cultures were treated with various concentrations of the test materials and left undisturbed for a further period of 72 hours. Comparative vehicle controls of 0.25% (v/v) DMSO were also set up in parallel, simultaneously. At the end of the incubation period, cell viability was determined using the calcein method.
After calcein fluorescence readings were obtained, cells were drained and added fresh 125 μl of 1N NaOH (in 10% DMSO) per well. Cells were lysed by resuspension and incubation (60° C./1 hour). Then this lysate was transferred to a fresh […] and measured OD405 nm in a TECAN M1000 plate reader (estimate of relative melanin content).
Calcein fluorescence values were ratio converted in 0 to 100 scale (% viability), with 100 representing the value of the 0.25% DMSO sample. % Melanin content was calculated as the ratio between OD405nm value of any sample to that of DMSO reference sample. Normalized melanin content value was then calculated as 100*(% Melanin Content)/(% Cellular viability).
The percentage Increase in melanin content was estimated as [(Normalized melanin content)−100]

Compound | Increase in melanin content of melanocytes (in words) | Extent of increase in melanin content versus reference molecules (in words) (data of Table 3)
O=C(N[C@@H](CO)C(=O)N[C@@H](Cc1ccc(O)cc1)C(=O)OCc1ccccc1)OCc1ccccc1 [Compound 1, Benzyl (2S)-2-[((2S)-2-{[(benzyloxy)carbonyl]amino}-3-hydroxypropanoyl)amino]-3-(4-hydroxyphenyl)propanoate.] (HELM PEPTIDE1{[O=C(OCc1ccccc1)[*:2]].S.Y.[c1ccc(CO[*:1])cc1]}$$$$V2.0) | substantial increase in melanin content | comparable to known standard reference molecules (Forskolin and IBMX)
C[C@@H](O)[C@H](NC(=O)OCc1ccccc1)C(=O)N[C@@H](Cc1ccc(O)cc1)C(N)=O [Compound 4, Benzyl (1S,2R)-1-({[(1S)-2-amino-1-(4-hydroxybenzyl)-2-oxoethyl]amino}carbonyl)-2-hydroxypropylcarbamate.] (HELM PEPTIDE1{[O=C(OCc1ccccc1)[*:2]].T.Y.[am]}$$$$V2.0) | not | –
